Patent publication US20160002297A1, “THERAPEUTIC AGENTS” (NATIONAL UNIVERSITY OF SINGAPORE, priority 2013, published 2016)
Results are given in words; binding and its absence hold for the method and conditions named. For some of these results: Binding seen in cells or lysates may run through a third protein. Some entries that bind do so weakly or less than the wild type.

Sequences of proteins named here, by UniProt entry; tags and fusion partners are left off. Residues count along the entry.
UniProt P11021, residues 19-654: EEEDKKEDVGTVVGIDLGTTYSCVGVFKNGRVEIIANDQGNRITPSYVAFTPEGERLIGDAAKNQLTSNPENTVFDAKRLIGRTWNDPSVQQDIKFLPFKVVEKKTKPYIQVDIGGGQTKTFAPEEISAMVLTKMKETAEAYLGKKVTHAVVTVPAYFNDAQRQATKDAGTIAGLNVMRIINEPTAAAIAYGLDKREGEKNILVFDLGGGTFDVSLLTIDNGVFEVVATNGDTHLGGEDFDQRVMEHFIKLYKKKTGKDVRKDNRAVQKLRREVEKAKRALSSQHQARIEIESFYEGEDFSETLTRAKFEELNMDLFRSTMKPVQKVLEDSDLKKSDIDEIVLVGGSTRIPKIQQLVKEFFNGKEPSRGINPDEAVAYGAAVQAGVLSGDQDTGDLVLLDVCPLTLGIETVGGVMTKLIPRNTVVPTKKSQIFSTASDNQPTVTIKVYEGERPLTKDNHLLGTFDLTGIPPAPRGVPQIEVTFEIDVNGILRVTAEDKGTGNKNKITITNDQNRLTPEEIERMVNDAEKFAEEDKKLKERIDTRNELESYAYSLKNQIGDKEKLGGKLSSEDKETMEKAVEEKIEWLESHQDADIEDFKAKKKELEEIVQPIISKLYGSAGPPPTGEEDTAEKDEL

Key:
[1] = biological target: T1, GRP78, purified recombinant protein (UniProt P11021 19-654, limits assumed); test: ELISA solid phase-binding assay
T1 construct: also called glucose-regulated protein 78 kDa; BiP

[2] = biological target: Cell-surface GRP78 in the plasma membrane fraction of HUVECs (human) (UniProt P11021); test: co-immunoprecipitation
[3] = biological target: Cell-surface GRP78 in the plasma membrane fraction of HUVECs (human) (UniProt P11021); test: co-immunoprecipitation with anti-FITC antibody

Binder | binding [1] | binding [2] | binding [3]
CRAAC (Disulfide bridge: 1-5) [Cyclic RAA peptide (cRAA)] | binds |  | 
CRKDC (FITC at the N-terminus (FITC-CRKDC); Disulfide bridge: 1-5) [FITC-labelled cRKD (FITC-RKD)] |  | binds | binds
CRKDC (Disulfide bridge: 1-5) [Cyclic CRKDC peptide (cRKD)] | binds |  | 
